Here are results for six molecules from doi:10.1101/2020.01.01.892539.

Chains of the proteins cited; added tags and fusions are not shown. Residues count along the entry.
UniProt P20029, residues 20-655: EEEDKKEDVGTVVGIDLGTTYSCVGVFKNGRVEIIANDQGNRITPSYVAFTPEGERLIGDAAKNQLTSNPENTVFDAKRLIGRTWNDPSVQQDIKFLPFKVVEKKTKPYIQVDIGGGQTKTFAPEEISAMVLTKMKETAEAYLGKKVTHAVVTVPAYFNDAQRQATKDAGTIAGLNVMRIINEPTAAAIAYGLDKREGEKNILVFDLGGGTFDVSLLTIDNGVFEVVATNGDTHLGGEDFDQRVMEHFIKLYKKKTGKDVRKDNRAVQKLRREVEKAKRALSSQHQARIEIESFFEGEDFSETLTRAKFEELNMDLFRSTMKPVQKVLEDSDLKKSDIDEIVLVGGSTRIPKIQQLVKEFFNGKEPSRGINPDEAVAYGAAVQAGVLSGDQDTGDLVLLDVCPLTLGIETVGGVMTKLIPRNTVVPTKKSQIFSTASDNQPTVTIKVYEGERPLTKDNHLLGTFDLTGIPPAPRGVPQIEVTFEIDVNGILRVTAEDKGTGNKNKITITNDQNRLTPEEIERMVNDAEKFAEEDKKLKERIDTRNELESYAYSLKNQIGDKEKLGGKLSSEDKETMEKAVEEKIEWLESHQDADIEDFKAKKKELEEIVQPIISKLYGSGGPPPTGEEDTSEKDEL
UniProt P08113, residues 22-802: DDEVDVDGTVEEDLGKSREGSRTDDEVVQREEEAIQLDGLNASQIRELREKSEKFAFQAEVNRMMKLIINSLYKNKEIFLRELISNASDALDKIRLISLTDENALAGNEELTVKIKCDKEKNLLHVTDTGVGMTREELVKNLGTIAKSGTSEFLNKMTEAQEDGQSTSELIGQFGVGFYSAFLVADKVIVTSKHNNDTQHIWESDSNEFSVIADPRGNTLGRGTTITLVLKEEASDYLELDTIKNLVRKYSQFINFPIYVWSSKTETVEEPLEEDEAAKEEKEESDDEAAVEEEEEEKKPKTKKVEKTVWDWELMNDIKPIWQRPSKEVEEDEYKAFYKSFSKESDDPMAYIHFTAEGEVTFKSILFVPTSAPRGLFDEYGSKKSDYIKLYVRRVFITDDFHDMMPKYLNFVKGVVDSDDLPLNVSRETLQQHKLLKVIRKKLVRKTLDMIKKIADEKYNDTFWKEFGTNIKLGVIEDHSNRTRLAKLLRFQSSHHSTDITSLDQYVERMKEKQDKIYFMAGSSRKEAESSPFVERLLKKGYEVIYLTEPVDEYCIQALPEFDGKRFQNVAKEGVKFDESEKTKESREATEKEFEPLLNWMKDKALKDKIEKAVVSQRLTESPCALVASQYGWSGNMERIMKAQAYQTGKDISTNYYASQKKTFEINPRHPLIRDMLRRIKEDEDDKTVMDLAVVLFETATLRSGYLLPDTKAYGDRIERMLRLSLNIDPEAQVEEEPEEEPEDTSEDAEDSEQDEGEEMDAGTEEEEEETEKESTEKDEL

In the experiment the target is BiP-FLAG (BiP/GRP78 with a 3xFLAG tag inserted just upstream of the KDEL signal) (mouse) (UniProt P20029). The experiment in a line: affinity purification with mass spectrometry.

Results are given in words; binding and its absence hold for the method and conditions named. Binding seen in cells or lysates may run through a third protein. Here binding means that the protein was enriched with, or labelled near, the bait; the list need not be complete.

Take “EGF receptor (from UniProt Q01279 25-1210)”: the binding result is on record as “binds”. Regarding Grp94 (from UniProt P08113 22-802), the binding entry was “binds”.

B1: GRP170 (protein, UniProt Q9JKR6 33-999)
chain: LAVMSVDLGSESMKVAIVKPGVPMEIVLNKESRRKTPVTVTLKENERFLGDSAAGMAIKNPKATLRYFQHLLGKQADNPHVALYRSRFPEHELIVDPQRQTVRFQISPQLQFSPEEVLGMVLNYSRSLAEDFAEQPIKDAVITVPAFFNQAERRAVLQAARMAGLKVLQLINDNTATALSYGVFRRKDINSTAQNVMFYDMGSGSTVCTIVTYQTVKTKEAGMQPQLQIRGVGFDRTLGGLEMELRLREHLAKLFNEQRKGQKAKDVRENPRAMAKLLREANRLKTVLSANADHMAQIEGLMDDVDFKAKVTRVEFEELCADLFDRVPGPVQQALQSAEMSLDQIEQVILVGGATRVPKVQEVLLKAVGKEELGKNINADEAAAMGAVYQAAALSKAFKVKPFVVRDAVIYPILVEFTREVEEEPGLRSLKHNKRVLFSRMGPYPQRKVITFNRYSHDFNFHINYGDLGFLGPEDLRVFGSQNLTTVKLKGVGESFKKYPDYESKGIKAHFNLDESGVLSLDRVESVFETLVEDSPEEESTLTKLGNTISSLFGGGTSSDAKENGTDAVQEEEESPAEGSKDEPAEQGELKEEAEPPAEETSQPPPSEPKGDAAREGEKPDEKESGDKPEAQKPNEKGQAGPEGAAPAPEEDKKPKPARKQKMVEEIGVELAVLDLPDLPEDELARSVQKLEELTLRDLEKQEREKAANSLEAFIFETQDKLYQPEYQEVSTEEQREEISGKLSATSTWLEDEGFGATTVMLKDKLAELRKLCQGLFFRVEERRKWPERLSALDNLLNHSSIFLKGARLIPEMDQVFTEVEMTTLEKVINDTWAWKNATLAEQAKLPATEKPVLLSKDIEAKMMALDREVQYLLNKAKFTKPRPRPKDKNGTRAEPPLNASAGDQEEKVIPPAGQTEEAKPILEPDKEETGTEPADSEPLELGGPGAGPEQEEQSAGQKRPSKNDEL
Regarding B1, the binding result is recorded as “binds”.

B2: P58^IPK (protein, UniProt Q91YW3 32-504)
chain: GVNADVEKHLELGKKLLAAGQLADALSQFHAAVDGDPDNYIAYYRRATVFLAMGKSKAALPDLTKVIALKMDFTAARLQRGHLLLKQGKLDEAEDDFKKVLKSNPSEQEEKEAESQLVKADEMQRLRSQALDAFDGADYTAAITFLDKILEVCVWDAELRELRAECFIKEGEPRKAISDLKAASKLKSDNTEAFYKISTLYYQLGDHELSLSEVRECLKLDQDHKRCFAHYKQVKKLNKLIESAEELIRDGRYTDATSKYESVMKTEPSVAEYTVRSKERICHCFSKDEKPVEAIRICSEVLQMEPDNVNALKDRAEAYLIEEMYDEAIQDYEAAQEHNENDQQIREGLEKAQRLLKQSQKRDYYKILGVKRNAKKQEIIKAYRKLALQWHPDNFQNEEEKKKAEKKFIDIAAAKEVLSDPEMRKKFDDGEDPLDAESQQGGGGNPFHRSWNSWQGFNPFSSGGPFRFKFHFN
As for B2, the binding result is recorded as “binds”.

B3: apolipoprotein H (protein, UniProt Q01339 20-345)
chain: GRICPKPDDLPFATVVPLKTSYDPGEQIVYSCKPGYVSRGGMRRFTCPLTGMWPINTLRCVPRVCPFAGILENGIVRYTSFEYPKNISFACNPGFFLNGTSSSKCTEEGKWSPDIPACARITCPPPPVPKFALLKDYRPSAGNNSLYQDTVVFKCLPHFAMIGNDTVMCTEQGNWTRLPECLEVKCPFPPRPENGYVNYPAKPVLLYKDKATFGCHETYKLDGPEEAECTKTGTWSFLPTCRESCKLPVKKATVLYQGMRVKIQEQFKNGMMHGDKIHFYCKNKEKKCSYTVEAHCRDGTIEIPSCFKEHSSLAFWKTDASELTPC
Regarding B3, the binding result was “binds”.

B4: ceruloplasmin (protein, UniProt Q61147 20-1061)
chain: RDKHYFIGITEAVWDYASGTEEKKLISVDTEQSNFYLQNGPDRIGRKYKKALYFEYTDGTFSKTIDKPAWLGFLGPVIKAEVEDKVYVHLKNLASRIYTFHAHGVTYTKEYEGAVYPDNTTDFQRADDKVLPGQQYVYVLHANEPSPGEGDSNCVTRIYHSHVDAPKDIASGLIGPLILCKKGSLYKEKEKNIDQEFVLMFSVVDENLSWYLEDNIKTFCSEPEKVDKDNEDFQESNRMYSINGYTFGSLPGLSMCAADRVKWYLFGMGNEVDVHSAFFHGQALTSRNYQTDIINLFPATLIDAYMVAQNPGVWMLSCQNLNHLKAGLQAFFQVRDCNKPSPEDNIQDRHVRHYYIAAEEVIWNYAPSGTDIFTGENLTALESDSRVFFEQGATRIGGSYKKMAYREYTDGSFTNRKQRGPDEEHLGILGPVIWAEVGDTIKVTFHNKGQHPLSIQPMGVSFTAENEGTYYGPPGRSSQQAASHVAPKETFTYEWTVPKEMGPTYADPVCLSKMYYSGVDPTKDIFTGLIGPMKICKKGSLLADGRQKDVDKEFYLFPTVFDENESLLLDDNIRMFTTAPDQVDKEDEDFQESNKMHSMNGFMYGNQPGLNMCLGESIVWYLFSAGNEADVHGIYFSGNTYLSKGERRDTANLFPHKSLTLLMNPDTKGTFDVECLTTDHYTGGMKQKYTVNQCQRQFEDFTVYLGERTYYVAAVEVEWDYSPSRAWEKELHHLQEQNVSNVFLDKEEFFIGSKYKKVVYRQFTDSSFREQVKRRAEDEHLGILGPPIHANVGDKVKVVFKNMATRPYSIHAHGVKTESSTVVPTLPGEVRTYTWQIPERSGAGREDSACIPWAYYSTVDRVKDLYSGLIGPLIVCRKSYVKVFSPKKKMEFFLLFLVFDENESWYLDDNIKTYSEHPEKVNKDNEEFLESNKMHAINGKMFGNLQGLTMHVKDEVNWYVMGMGNEIDLHTVHFHGHSFQYKHRGVYSSDVFDLFPGTYQTLEMFPQTPGTWLLHCHVTDHVHAGMATTYTVLPVEQETKSG
For B4, the binding entry is given as “binds”.
